Test results reported in paper PMC7439480, “Phosphorylation-Dependent Assembly of a 14-3-3 Mediated Signaling Complex during Red Blood Cell Invasion by Plasmodium falciparum Merozoites” (mBio, 2020).
These are yes or no findings as the source states them, for the method shown. In cells and extracts the contact can be indirect.

By UniProt entry, the sequences of proteins in these tests, tags left out.
UniProt Q8I719: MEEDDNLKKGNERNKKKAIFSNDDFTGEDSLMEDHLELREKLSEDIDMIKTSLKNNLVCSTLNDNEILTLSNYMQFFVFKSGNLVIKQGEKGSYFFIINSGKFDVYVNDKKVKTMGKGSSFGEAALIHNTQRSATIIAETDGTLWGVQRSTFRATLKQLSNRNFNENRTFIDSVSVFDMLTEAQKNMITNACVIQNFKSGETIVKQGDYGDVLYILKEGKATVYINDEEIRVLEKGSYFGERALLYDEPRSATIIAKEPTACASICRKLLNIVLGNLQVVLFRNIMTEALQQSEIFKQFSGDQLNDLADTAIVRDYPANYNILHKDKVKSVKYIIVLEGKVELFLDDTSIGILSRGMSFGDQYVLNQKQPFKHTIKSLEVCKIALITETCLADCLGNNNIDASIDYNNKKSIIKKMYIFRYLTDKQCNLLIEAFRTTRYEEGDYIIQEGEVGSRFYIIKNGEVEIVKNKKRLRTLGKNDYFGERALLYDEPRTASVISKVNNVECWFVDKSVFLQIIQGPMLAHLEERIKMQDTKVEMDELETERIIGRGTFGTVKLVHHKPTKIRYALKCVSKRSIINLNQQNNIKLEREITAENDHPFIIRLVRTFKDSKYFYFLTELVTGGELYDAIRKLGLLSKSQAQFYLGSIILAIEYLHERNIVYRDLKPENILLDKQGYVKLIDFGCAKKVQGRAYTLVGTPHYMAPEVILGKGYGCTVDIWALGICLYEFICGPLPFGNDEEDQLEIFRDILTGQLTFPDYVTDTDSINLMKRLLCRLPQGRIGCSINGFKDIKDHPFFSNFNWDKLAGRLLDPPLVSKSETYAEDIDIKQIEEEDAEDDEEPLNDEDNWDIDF

Biological target: T1, Pf14-3-3I (P. falciparum 3D7 (endogenous in merozoites)) (UniProt C0H4V6)
T1 sequence: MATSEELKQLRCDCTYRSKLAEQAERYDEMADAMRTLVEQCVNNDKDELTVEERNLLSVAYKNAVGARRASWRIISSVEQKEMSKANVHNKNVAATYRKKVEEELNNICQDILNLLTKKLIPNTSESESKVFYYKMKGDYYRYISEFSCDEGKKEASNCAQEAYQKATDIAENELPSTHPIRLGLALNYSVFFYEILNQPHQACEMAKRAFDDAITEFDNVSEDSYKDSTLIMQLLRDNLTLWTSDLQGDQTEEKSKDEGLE
Experiment: co-IP; IP with anti-PfPKAr, anti-PfCDPK1 or anti-Pf14-3-3I sera (Pierce co-IP kit) from merozoite lysates, Western blot; merozoites in IC (high K+), EC (low K+) or EC-BA (EC + BAPTA-AM) buffer, or treated with 100 uM peptides P1, P2, P3 or 2 uM BV02 before lysis

Question: “P. falciparum protein kinase G (PfPKG) (from UniProt Q8I719 1-853) (enzyme)” was tested. Which binding did it give?
Answer: The binding was “no binding”.
